Results reported in patent US11584752B2, “Method for controlled release using mechanical force” (California Institute of Technology, priority 2020, dated 2023).
At least one compound was matched to its structure with a doubt left.

Assay: Decomposition of model 2-furylcarbinol derivatives in solution at room temperature, followed by NMR and photoluminescence spectroscopy
Settings: MeCN:MeOH (3:1), over about 6 h, fluorescence spectroscopy

With `Cc1cc(=O)oc2cc(OC(=O)OC(C)c3ccc(COC(=O)C(C)(C)Br)o3)ccc12` (stereo not shown) [Compound 1, (5-(1-((((4-methyl-2-oxo-2H-chromen-7-yl)oxy)carbonyl)oxy)ethyl)furan-2-yl)methyl 2-bromo-2-methylpropanoate] the “hydroxycoumarin 2 released, of the theoretical yield” value was “approximately 98%”.
